These are yes or no findings as the source states them, for the method shown. A result given as binding can be weak or reduced; the word gives no strength.
What was measured:
fRSK1 [1] = target: T1, fRSK1; experiment: fluorescence polarisation; competitive: 50 nM fluorescent tracer peptide pre-formed with the PDZ domain (>60-80% complex), unlabeled peptide added at 8 concentrations; 20 mM HEPES pH 7.5, 150 mM NaCl, 0.5 mM TCEP, 0.01% Tween 20; triplicate; apparent; both purified
T1 sequence (peptide, fluorescein coupled directly to the N-terminus): KLPSTTL

fRSK1 [2] = target: T1, fRSK1; experiment: fluorescence polarisation; direct: fluorescein-labelled tracer peptide with increasing amounts of PDZ domain; triplicate; apparent; both purified

| binding (fRSK1 [1]) | binding (fRSK1 [2]) | Substance |
| --- | --- | --- |
| binds | binds | HTRA1-1 (human) (domain or fragment) |
| binds | binds | MAST2-1 (human) (domain or fragment) |

Reference: publication PMC7774954, “Interactomic affinity profiling by holdup assay: Acetylation and distal residues impact the PDZome-binding specificity of PTEN phosphatase” (PLoS ONE, 2020)
